Measurements: PMC7819943, “Rice protein-binding microarrays: a tool to detect cis-acting elements near promoter regions in rice”
This is one part of the list.

By UniProt entry, the sequences of proteins in these tests, tags left out.
UniProt Q0JBA9, entry or part of it: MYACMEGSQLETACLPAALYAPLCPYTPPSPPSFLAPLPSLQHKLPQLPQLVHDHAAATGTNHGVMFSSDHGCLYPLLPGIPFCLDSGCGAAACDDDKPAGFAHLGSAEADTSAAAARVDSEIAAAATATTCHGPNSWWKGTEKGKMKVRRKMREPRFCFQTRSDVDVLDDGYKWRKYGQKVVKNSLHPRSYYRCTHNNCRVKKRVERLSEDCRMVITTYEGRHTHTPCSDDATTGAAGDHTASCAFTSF

Molecular target: OsWRKY34 (Oryza sativa, UniProt Q0JBA9 1-250)
Assay: protein-binding microarray (RPBM); PBS, 2% BSA, 51.3 ng/ul salmon testes DNA, 50 uM zinc acetate, 200 nM TF, 25 C, 1 h; high values mean tight binding
Conditions: protein: recombinant; tags: N-terminal polyhistidine and DsRed monomer fusion (pET32a); label: CyDye5-dUTP incorporated in the synthesized complementary strand; 3' TTTTT single-stranded linker to array surface; dsDNA, one strand shown
Summary of the method: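 Transcription factors were each fused at the N-terminus to a polyhistidine tag plus DsRed and expressed in E. coli BL21-CodonPlus before Ni–NTA purification. Binding to a double-stranded custom Agilent array was carried out with 200 nM protein at 25 °C for 1 h in PBS, 2% BSA, salmon testes DNA and 50 µM zinc acetate. The binding signal is per-feature fluorescence intensity, in arbitrary units, on an Axon 4000B scanner.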

Sequence	binding signal
TCTTAGGGTTAGGGTTTCGTCTATTCGTTGCCTTCCTCGCCGGAGTCACCTAGTGCAG	9090 fluorescence intensity (a.u.)
CGCACAGCTGCACACCACCTTACGAGCTCGATGTCCTACACGGAGTCACCTAGTGCAG	8610 fluorescence intensity (a.u.)
GTAAGCTCACATAATTTGTACTCATCCAAACTCACATAAACGGAGTCACCTAGTGCAG	9380 fluorescence intensity (a.u.)
TCCTCTGCACACACCTTCCGGCGGCGCACCAGGCGGACTCCGGAGTCACCTAGTGCAG	10400 fluorescence intensity (a.u.)
GGCCACTTCCTCCCTCTCCCTGTGCATGCGCTCTCTTCCCCGGAGTCACCTAGTGCAG	9400 fluorescence intensity (a.u.)
TCTGATACTGTATGTGTTGCTTTCAGTTGGCCATCTATATCGGAGTCACCTAGTGCAG	10100 fluorescence intensity (a.u.)
CCTTCCTTTCTTCTCTTTCTACTACAGTACACCACACTTTCGGAGTCACCTAGTGCAG	9220 fluorescence intensity (a.u.)
TTTCGTATGGATCGAGATTAAGCCACTTTAGCATCGTTCGCGGAGTCACCTAGTGCAG	8350 fluorescence intensity (a.u.)
GCCATCGATTTTGCTATATATTTGTCGATAAATTTTTCTCCGGAGTCACCTAGTGCAG	13000 fluorescence intensity (a.u.)
ATATTCATTATAATATATCATATTATTTTTTACAAAATCTCGGAGTCACCTAGTGCAG	8120 fluorescence intensity (a.u.)
GGAGGGTGGAGGGCGGAGGACGGAGGTGGTGGCGCCGCGCCGGAGTCACCTAGTGCAG	9550 fluorescence intensity (a.u.)
GCAAGTTTTTAGGCTCTCTTCAACCCTCGGCTCTGCTACCCGGAGTCACCTAGTGCAG	9130 fluorescence intensity (a.u.)
AACTTTCAACTTTTCCGTCACATTAAATATTTGGACACATCGGAGTCACCTAGTGCAG	10500 fluorescence intensity (a.u.)
CAACCAACCCCACCACGCGTCCTGCATAATCACCGTCCGTCGGAGTCACCTAGTGCAG	8840 fluorescence intensity (a.u.)
TACTGTTTGGTTGTTCTTTACCTGGAGATGTTGTACATGTCGGAGTCACCTAGTGCAG	10800 fluorescence intensity (a.u.)
AGTAACTGTAACTGAAGAAGCCGGCGCCACCATTCCCGCCCGGAGTCACCTAGTGCAG	8100 fluorescence intensity (a.u.)
TTGCCTCACGGCGTTACGTGCCCAGCTGATTTCCCGTTTACGGAGTCACCTAGTGCAG	10800 fluorescence intensity (a.u.)
CGTATTTTAATATATGACGCCGTTGACTTTTTATTAACGACGGAGTCACCTAGTGCAG	23200 fluorescence intensity (a.u.)
ATATATTCGGCCACACCCACACCTAGCTTCGTTGCAGCTACGGAGTCACCTAGTGCAG	8420 fluorescence intensity (a.u.)
TCTCTTGCTGTGTGTGGCGCCTGCTTTCCTCGAGGATAACCGGAGTCACCTAGTGCAG	10900 fluorescence intensity (a.u.)
ATCGAAACCGTGGATGGACTTGGGGTTGGGTGGTGGTGGTCGGAGTCACCTAGTGCAG	11700 fluorescence intensity (a.u.)

Two records drawn at random from those above:
Sequence	binding signal
TCCTCTGCACACACCTTCCGGCGGCGCACCAGGCGGACTCCGGAGTCACCTAGTGCAG	10400 fluorescence intensity (a.u.)
AACTTTCAACTTTTCCGTCACATTAAATATTTGGACACATCGGAGTCACCTAGTGCAG	10500 fluorescence intensity (a.u.)

Later entries:

Sequence	binding signal
TCTCCTGCCTACTATTTCCATTGTCTGTCGGAATATTTTTCGGAGTCACCTAGTGCAG	8520 fluorescence intensity (a.u.)
TTACAACACCATTGGCATTTGGTTGTCATTGACGCTGCTACGGAGTCACCTAGTGCAG	8200 fluorescence intensity (a.u.)
GCTGATTACATCCGTCTCACTTTGACCATGGATTACTTTTCGGAGTCACCTAGTGCAG	10700 fluorescence intensity (a.u.)
ACGACCACGCCGCCCGCCGATCCTCCATCGCCGCCTTCACCGGAGTCACCTAGTGCAG	9300 fluorescence intensity (a.u.)
CACGTTCGCTCTCATGGCCTAGAAATTCTCACATTAATCACGGAGTCACCTAGTGCAG	9110 fluorescence intensity (a.u.)
AATCAGATGGAGAGTTGGTTATATGGGTGTTTGGAGAGTTCGGAGTCACCTAGTGCAG	8410 fluorescence intensity (a.u.)
CTCCTCCTCCCTGCGGCTTCTTCTTCGCCATAACGCCATGCGGAGTCACCTAGTGCAG	8540 fluorescence intensity (a.u.)
GGGGAGGCGGGGTGGCGGGAGGGAAGGCGGCGGCGGCGCCCGGAGTCACCTAGTGCAG	12700 fluorescence intensity (a.u.)
GATAATTTGTTTGTTCTCCGAAATTACCAAACTGTCCTTTCGGAGTCACCTAGTGCAG	9900 fluorescence intensity (a.u.)
GATTTTCTGTTTCACATCTTGTTGTTTGAACCTATGTGTGCGGAGTCACCTAGTGCAG	9150 fluorescence intensity (a.u.)
AACTCGTGGCTCTCGTCCCATTCCCACGCTTGCGCAAGCGCGGAGTCACCTAGTGCAG	9720 fluorescence intensity (a.u.)
CGCCGGCGTCCCTTCGTCCTCGCCACCGGCGTCGAGCTTCCGGAGTCACCTAGTGCAG	12100 fluorescence intensity (a.u.)
CTGTCACCGTCACATCCGATGGATAGAGCAACCATTTCCTCGGAGTCACCTAGTGCAG	9300 fluorescence intensity (a.u.)
CATCCATCGTATCCACCGCCGTCGCCTTCCATCCTCCCCGCGGAGTCACCTAGTGCAG	8040 fluorescence intensity (a.u.)
CATCTGCTCGAACTTCTCTCCTCTCCCACGATGAACCCTACGGAGTCACCTAGTGCAG	9060 fluorescence intensity (a.u.)
ATGTCCCTTTTTGTCATTAGTCATCACCCAAAAGAAACCACGGAGTCACCTAGTGCAG	8240 fluorescence intensity (a.u.)
CCGCCGCCAGTTCGTCGTCGTCTCGTCCCCTTTCCTTCCTCGGAGTCACCTAGTGCAG	8720 fluorescence intensity (a.u.)
GCCCTCGCGCACTCCACCGCCGCCGCCGCCTCTCGTCTCCCGGAGTCACCTAGTGCAG	13200 fluorescence intensity (a.u.)
CACCGTCTCCGCTTCCCTCGCGTCCTCTTGTCCTCACGCACGGAGTCACCTAGTGCAG	8330 fluorescence intensity (a.u.)
ATGTTTACTTGTACTAACCGGTTGAGATTGCAATATTTTACGGAGTCACCTAGTGCAG	8320 fluorescence intensity (a.u.)
AATTGTGGGCAGGTTTGCATCGCTGGTCCAGCAGCTTTGACGGAGTCACCTAGTGCAG	8320 fluorescence intensity (a.u.)
